The supplement of paper PMC8291772
± gives the standard error. The list shows a part of the results. This data set is noisy: repeats of one test often differ as much as different tests do.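 The library held every possible DNA sequence from one to five nucleotides long. General ability to extend was judged against a limit of the blocked-version mean plus three standard deviations, and the probe detects only chains extended by at least seven dT.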

Sequences of proteins named here, by UniProt entry; tags and fusion partners are left off. A change or cut given only in a name is not applied to a line headed by its entry.
UniProt P06526: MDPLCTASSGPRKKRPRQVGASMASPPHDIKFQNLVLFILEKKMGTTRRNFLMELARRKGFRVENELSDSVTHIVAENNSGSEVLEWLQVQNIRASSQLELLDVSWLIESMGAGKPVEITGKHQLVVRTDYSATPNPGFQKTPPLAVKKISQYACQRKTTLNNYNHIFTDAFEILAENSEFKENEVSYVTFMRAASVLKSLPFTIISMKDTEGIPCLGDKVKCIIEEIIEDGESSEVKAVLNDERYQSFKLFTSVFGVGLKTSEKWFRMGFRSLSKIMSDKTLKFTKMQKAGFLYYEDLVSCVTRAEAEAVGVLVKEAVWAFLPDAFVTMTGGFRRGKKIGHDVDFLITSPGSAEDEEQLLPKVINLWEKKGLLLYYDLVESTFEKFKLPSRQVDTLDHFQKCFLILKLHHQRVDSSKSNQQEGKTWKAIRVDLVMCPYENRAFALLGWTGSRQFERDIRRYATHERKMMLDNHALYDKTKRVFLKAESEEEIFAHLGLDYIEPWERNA

target: terminal deoxynucleotidyl transferase (calf thymus) (UniProt P06526); experiment: TdT poly-dT extension signal (Cy3 hybridisation fluorescence, uncapped minus capped) (fluorescence a.u.); higher = more efficient initiation of TdT extension; conditions: initiator chemistry: D-DNA, free 3'-OH (5'-tethered via HEG linker)

| Sequence | TdT poly-dT extension signal |
| --- | --- |
| GCCTC | 3050 ± 210 |
| TAAGG | 4020 ± 430 |
| CTGCA | 3500 ± 420 |
| CCGCA | 4010 ± 400 |
| CACGC | 2730 ± 340 |
| TTTAC | 2950 ± 350 |
| AGCGA | 3700 ± 520 |
| CCTA | 3120 ± 350 |
| ACGAA | 4120 ± 430 |
| ACGTC | 3620 ± 440 |
| AAGG | 3330 ± 690 |
| CCTGA | 3340 ± 320 |
| CGCCA | 3510 ± 390 |
| TAGGG | 4710 ± 640 |
| CCCTC | 2560 ± 320 |
| GAACT | 3090 ± 360 |
| CGATC | 2690 ± 320 |
| AGTA | 3010 ± 320 |
| TCATA | 3610 ± 430 |
| CATA | 3320 ± 380 |
| GATGG | 3860 ± 500 |
| AGACA | 3880 ± 390 |
| CATTT | 4380 ± 270 |
| GTTTT | 4150 ± 500 |

| Sequence | TdT poly-dT extension signal |
| --- | --- |
| TAGAC | 1730 ± 440 |
| CGAGA | 4200 ± 340 |
| CGGGG | 3480 ± 960 |
| TCTCT | 2940 ± 300 |
| TTTTC | 3000 ± 240 |
| ATATA | 3320 ± 320 |
| GGAAC | 3400 ± 360 |
| CCCGC | 3570 ± 320 |
| TCGTG | 3560 ± 420 |
| GTGAT | 3390 ± 370 |
| TAACA | 3210 ± 380 |
| TCTTC | 2970 ± 230 |
| CCAAA | 4000 ± 470 |
| AATCC | 2620 ± 320 |
| AACGC | 3230 ± 330 |
| ATACG | 4050 ± 400 |
| CCGAA | 3830 ± 440 |
| ATTG | 3420 ± 510 |
| TGATC | 2970 ± 290 |
| TAAG | 3350 ± 370 |
| GAAAC | 2810 ± 350 |
| CACAT | 2800 ± 430 |
| AGGTT | 3670 ± 380 |
| ACAAT | 3900 ± 410 |

An excerpt of these results, as tab-separated lines.
Sequence	TdT poly-dT extension signal
CCGAA	3830 ± 440
ATTG	3420 ± 510
TGATC	2970 ± 290
TAAG	3350 ± 370
GAAAC	2810 ± 350

(cont.)

| Sequence | TdT poly-dT extension signal |
| --- | --- |
| CAGAG | 3600 ± 550 |
| CATCC | 3140 ± 300 |
| TAAGC | 3270 ± 520 |
| TGCCC | 2860 ± 260 |
| GTACA | 3030 ± 360 |
| AAGCC | 3150 ± 310 |
| TCGTA | 3660 ± 340 |
| CTAA | 3230 ± 460 |
| CAAAC | 2900 ± 400 |
| AGGC | 3440 ± 330 |
| AACAC | 2940 ± 360 |
| TCACG | 4880 ± 620 |
| ATTCG | 3080 ± 330 |
| GTATT | 3960 ± 320 |
| TGGCT | 3050 ± 380 |
| GGACG | 4160 ± 290 |
| ATATC | 3080 ± 280 |
| CCCCC | 2740 ± 260 |
| TACAC | 2960 ± 320 |
| CGCAT | 3730 ± 260 |
| TGCTG | 3340 ± 550 |
| CAATA | 3670 ± 460 |
| GATCC | 3100 ± 270 |
| TTAGT | 3660 ± 420 |
